Experimental data published in PubChem BioAssay AID256 (DTP/NCI, 2004).
The list shows only some results of the screen, not a fair sample: it is rich in T/C values a quarter to a half above the control, in often repeated tests (any T/C) and in doses without a T/C. Further doses and runs are listed elsewhere. T/C gives the treated animals as a percentage of the vehicle group. Some doses have a count of surviving animals in place of a T/C: the source files T/C as zero there, which appears to mark a toxic dose or a test without result, not a measured value. Some survivor counts are full or nearly so, which does not show that the dose was tolerated: the source hardly ever lists a survival T/C far under the control, and the zero likely stands for such cases as well. Survivors were counted at the toxicity check, usually on the fifth day, unless a day is given; later deaths do not show. Schedule codes are those of the source, taken here to give the interval after Q, in days (D) or hours (H), and the number of doses after X. For survival time, this PubChem deposit counts one and a half times the control or more as active, and values a quarter to a half above the control carry no call in these data; other NCI protocols may use other cut-offs. Some entries hold several experiments; their values stand side by side, smallest first. Some T/C values carry the count of animals alive at the toxicity check (mostly the fifth day); without a count, all were alive then.

Test system: CD2F1 mice, L1210 leukemia ip, survival T/C
Assay: NCI In Vivo Anticancer Drug Screen. Data for tumor model L1210 Leukemia (intraperitoneal) in CD2F1 (CDF1) mice
Conditions: higher T/C = longer survival
Outline: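 Ratio T/C, where T is the treated-group value and C the vehicle-dosed control value, from mice implanted with a transplantable tumor.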

[1] = T/C endpoint: mean survival time, dose: 400.0 mg/kg/injection, schedule: Q04DX003 (ip), vehicle: saline
[2] = T/C endpoint: mean survival time, dose: 400.0 mg/kg/injection, schedule: Q04DX003 (ip), vehicle: saline with Tween-80
[3] = T/C endpoint: mean survival time, dose: 200.0 mg/kg/injection, schedule: Q01DX001 (ip), vehicle: saline with Tween-80
[4] = T/C endpoint: mean survival time, dose: 400.0 mg/kg/injection, schedule: Q01DX001 (ip), vehicle: saline with Tween-80
[5] = T/C endpoint: mean survival time, dose: 100.0 mg/kg/injection, schedule: Q01DX001 (ip), vehicle: saline with Tween-80
[6] = T/C endpoint: mean survival time, dose: 100.0 mg/kg/injection, schedule: Q04DX003 (ip), vehicle: saline with Tween-80
[7] = T/C endpoint: mean survival time, dose: 200.0 mg/kg/injection, schedule: Q04DX003 (ip), vehicle: saline with Tween-80

In the case of `Nc1ccc2ccc(O)cc2c1`, the T/C (T/C endpoint: mean survival time, dose: 200.0 mg/kg/injection, schedule: Q01DX009 (ip), vehicle: saline) is reported as 129 % of control, the survivor count (T/C endpoint: mean survival time, dose: 400.0 mg/kg/injection, schedule: Q01DX009 (ip), vehicle: saline) is reported as 0 of 6 and the survivor count [1] is reported as 0 of 6.

In the case of `CCCCCCCCN(c1ccc(I)cc1)S(=O)(=O)c1ccc(C)cc1`, the survivor count [2] is reported as 6 of 6.

In the case of `O=[N+]([O-])C=C(S)S`, the survivor count (T/C endpoint: mean survival time, dose: 400.0 mg/kg/injection, schedule: Q01DX009 (ip), vehicle: Klucel (hydroxypropylcellulose) (HPC)) is reported as 1 of 6.

For `CCS(=O)(=O)OC1CCCCCCC1NC(=O)c1ccccc1` (configuration not stated), the survivor count (T/C endpoint: mean survival time, dose: 200.0 mg/kg/injection, schedule: Q01DX009 (ip), vehicle: saline with Tween-80) was 1 of 6 and the survivor count [2] was 2 of 6.

In the case of `O=P1(N(CCCl)CCCl)NCCC2(O1)C1CC3CC(C1)CC2C3` (configuration not stated), the survivor count (T/C endpoint: mean survival time, dose: 250.0 mg/kg/injection, schedule: Q01DX001 (ip), vehicle: distilled water + Tween-80) is reported as 6 of 6.

For `CCC(CO)[N-]CC[N-]C(CC)CO.[Cl][Pt+2][Cl]` (configuration not stated), the survivor count (T/C endpoint: median survival time, dose: 100.0 mg/kg/injection, schedule: Q04DX003 (ip), vehicle: saline) was 4 of 6.

For `O=[N+]([O-])c1cccc(N=Nn2cccc2)c1`, the survivor count [3] was 3 of 6 and the survivor count [4] was 0 of 6.

With `CN1C(=O)NC(c2cccc(N(CCCl)CCCl)c2)C1=O` (configuration not stated) the T/C (T/C endpoint: mean survival time, dose: 50.0 mg/kg/injection, schedule: Q01DX001 (ip), vehicle: Klucel (hydroxypropylcellulose) (HPC)) was 138 % of control, the T/C (T/C endpoint: mean survival time, dose: 100.0 mg/kg/injection, schedule: Q01DX001 (ip), vehicle: Klucel (hydroxypropylcellulose) (HPC)) was 129 and 134 % of control and the survivor count (T/C endpoint: mean survival time, dose: 200.0 mg/kg/injection, schedule: Q01DX001 (ip), vehicle: Klucel (hydroxypropylcellulose) (HPC)) was 6 of 6. For the same molecule, the survivor count (T/C endpoint: mean survival time, dose: 400.0 mg/kg/injection, schedule: Q01DX001 (ip), vehicle: Klucel (hydroxypropylcellulose) (HPC)) was 5 of 6.

In the case of `O=C(N/N=C/c1ccc2c(c1)CCC2)c1cccc([N+](=O)[O-])c1`, the survivor count [5] is reported as 6 of 6.

With `C=CC[n+]1cc2c3ccccc3c(N)cc2c2ccccc21` the survivor count (T/C endpoint: mean survival time, dose: 12.5 mg/kg/injection, schedule: Q04DX003 (ip), vehicle: water) was 6 of 6 and the survivor count (T/C endpoint: mean survival time, dose: 25.0 mg/kg/injection, schedule: Q04DX003 (ip), vehicle: water) was 0 of 6.

In the case of `Cn1c(=O)c2c(nc(-c3ccccc3)n2O)n(C)c1=O`, the survivor count (T/C endpoint: mean survival time, dose: 200.0 mg/kg/injection, schedule: Q01DX005 (ip), vehicle: other) is reported as 2 of 6.

`O=C1N(c2ccccc2)CCS1(=O)=O` was tested, and the survivor count (T/C endpoint: mean survival time, dose: 75.0 mg/kg/injection, schedule: Q01DX001 (ip), vehicle: other) was 0 of 6, the survivor count (T/C endpoint: mean survival time, dose: 150.0 mg/kg/injection, schedule: Q01DX001 (ip), vehicle: other) was 0 of 6 and the survivor count (T/C endpoint: mean survival time, dose: 300.0 mg/kg/injection, schedule: Q01DX001 (ip), vehicle: other) was 0 of 6.

`CN1CCCN(C)C1c1ccc(Cl)cc1` was tested, and the survivor count [6] was 0 of 6, the survivor count [7] was 0 of 6 and the survivor count [2] was 0 of 6.

With `CC([NH-])CC[NH-].O=S(=O)(O)O.[Pt+2]` (configuration not stated) the T/C (T/C endpoint: mean survival time, dose: 3.12 mg/kg/injection, schedule: Q04DX003 (ip), vehicle: saline) was 139 % of control and the T/C (T/C endpoint: mean survival time, dose: 12.5 mg/kg/injection, schedule: Q04DX003 (ip), vehicle: saline) was 148 % of control.

`CC(=O)Nc1ccc2c(Nc3ccc(NS(C)(=O)=O)cc3)c3ccccc3nc2c1` was tested, and the survivor count [1] was 4 of 6.

For `C[n+]1c2ccccc2cc2ccccc21`, the survivor count (T/C endpoint: mean survival time, dose: 50.0 mg/kg/injection, schedule: Q04DX003 (ip), vehicle: saline) was 5 of 6.

For `CC(=O)OC1OC(C)C(OC(C)=O)C(OC(C)=O)C1NC(=O)N(CCCl)N=O` (configuration not stated), the survivor count (T/C endpoint: mean survival time, dose: 60.0 mg/kg/injection, schedule: Q01DX001 (ip), vehicle: saline with Tween-80) was 8 of 10, the survivor count (T/C endpoint: mean survival time, dose: 90.0 mg/kg/injection, schedule: Q01DX001 (ip), vehicle: saline with Tween-80) was 7 of 10 and the survivor count (T/C endpoint: mean survival time, dose: 134.0 mg/kg/injection, schedule: Q01DX001 (ip), vehicle: saline with Tween-80) was 9 of 10. The survivor count [3] was 2 of 10.

In the case of `O=c1ccccn1CCc1ccccc1`, the survivor count [6] is reported as 4 of 6, the survivor count [7] is reported as 0 of 6 and the survivor count [2] is reported as 0 of 6.

With `COc1ccc2[nH]c3c(c2c1)CCNC3CC(C)CCC=C(C)C` (configuration not stated) the survivor count (T/C endpoint: mean survival time, dose: 200.0 mg/kg/injection, schedule: Q01DX009 (ip), vehicle: Klucel (hydroxypropylcellulose) (HPC)) was 0 of 6.

With `C=CN1C(=O)NC2(CCCCC2)C1=O` the survivor count (T/C endpoint: mean survival time, dose: 100.0 mg/kg/injection, schedule: Q01DX009 (ip), vehicle: saline with Tween-80) was 6 of 6.

In the case of `O=C(O)C1CCC(C(=O)O)CC1.[NH-]C1CCCCC1[NH-].[Pt+2]` (configuration not stated), the T/C (T/C endpoint: median survival time, dose: 6.25 mg/kg/injection, schedule: Q04DX003 (ip), vehicle: saline) is reported as 125 % of control, the T/C (T/C endpoint: median survival time, dose: 12.5 mg/kg/injection, schedule: Q04DX003 (ip), vehicle: saline) is reported as 126 and 143 % of control and the T/C (T/C endpoint: median survival time, dose: 25.0 mg/kg/injection, schedule: Q04DX003 (ip), vehicle: saline) is reported as 140 % of control.

In the case of `COC(=O)C(NC(=O)CCNC(=O)OCc1ccccc1)C(C)C` (configuration not stated), the survivor count (T/C endpoint: mean survival time, dose: 400.0 mg/kg/injection, schedule: Q01DX009 (ip), vehicle: saline with Tween-80) is reported as 3 of 6.

In the case of `NCCCNCCCCNC(=O)C(O)NC(=O)CC(O)CCCCN=C(N)N` (configuration not stated), the T/C (T/C endpoint: median survival time, dose: 25.0 mg/kg/injection, schedule: Q01DX009 (ip), vehicle: saline, evaluated on day 30) is reported as 200, 215, 219 % of control, the T/C (T/C endpoint: median survival time, dose: 25.0 mg/kg/injection, schedule: Q01DX009 (ip), vehicle: saline, evaluated on day 40) is reported as 171 % of control [5 of 6 alive] and the T/C (T/C endpoint: median survival time, dose: 50.0 mg/kg/injection, schedule: Q01DX009 (ip), vehicle: saline, evaluated on day 30) is reported as 200, 224, 231 % of control. The T/C (T/C endpoint: median survival time, dose: 50.0 mg/kg/injection, schedule: Q01DX009 (ip), vehicle: saline, evaluated on day 40) was 189 % of control.

In the case of `O=c1c(Cl)c(C(Cl)(Cl)Cl)[nH]c2ccccc12`, the survivor count [5] is reported as 0 of 6, the survivor count [3] is reported as 0 of 6 and the survivor count [4] is reported as 0 of 6.

In the case of `Nc1ncnc2oc(-c3ccccc3)c(-c3ccccc3)c12`, the survivor count (T/C endpoint: mean survival time, dose: 100.0 mg/kg/injection, schedule: Q04DX002 (ip), vehicle: saline with Tween-80) is reported as 3 of 3, the survivor count (T/C endpoint: mean survival time, dose: 200.0 mg/kg/injection, schedule: Q04DX002 (ip), vehicle: saline with Tween-80) is reported as 3 of 3 and the survivor count (T/C endpoint: mean survival time, dose: 400.0 mg/kg/injection, schedule: Q04DX002 (ip), vehicle: saline with Tween-80) is reported as 3 of 3.
